In the test the target is myosin-Va (human) (UniProt Q9Y4I1). Briefly: co-IP; cell lysates immunoprecipitated with EXOC6A or Myo-Va antibodies, then immunoblotting with the indicated antibodies; endogenous proteins; cell line and buffer not stated.

Amino acid sequences for entries named in this document (tags omitted).
UniProt Q9Y4I1: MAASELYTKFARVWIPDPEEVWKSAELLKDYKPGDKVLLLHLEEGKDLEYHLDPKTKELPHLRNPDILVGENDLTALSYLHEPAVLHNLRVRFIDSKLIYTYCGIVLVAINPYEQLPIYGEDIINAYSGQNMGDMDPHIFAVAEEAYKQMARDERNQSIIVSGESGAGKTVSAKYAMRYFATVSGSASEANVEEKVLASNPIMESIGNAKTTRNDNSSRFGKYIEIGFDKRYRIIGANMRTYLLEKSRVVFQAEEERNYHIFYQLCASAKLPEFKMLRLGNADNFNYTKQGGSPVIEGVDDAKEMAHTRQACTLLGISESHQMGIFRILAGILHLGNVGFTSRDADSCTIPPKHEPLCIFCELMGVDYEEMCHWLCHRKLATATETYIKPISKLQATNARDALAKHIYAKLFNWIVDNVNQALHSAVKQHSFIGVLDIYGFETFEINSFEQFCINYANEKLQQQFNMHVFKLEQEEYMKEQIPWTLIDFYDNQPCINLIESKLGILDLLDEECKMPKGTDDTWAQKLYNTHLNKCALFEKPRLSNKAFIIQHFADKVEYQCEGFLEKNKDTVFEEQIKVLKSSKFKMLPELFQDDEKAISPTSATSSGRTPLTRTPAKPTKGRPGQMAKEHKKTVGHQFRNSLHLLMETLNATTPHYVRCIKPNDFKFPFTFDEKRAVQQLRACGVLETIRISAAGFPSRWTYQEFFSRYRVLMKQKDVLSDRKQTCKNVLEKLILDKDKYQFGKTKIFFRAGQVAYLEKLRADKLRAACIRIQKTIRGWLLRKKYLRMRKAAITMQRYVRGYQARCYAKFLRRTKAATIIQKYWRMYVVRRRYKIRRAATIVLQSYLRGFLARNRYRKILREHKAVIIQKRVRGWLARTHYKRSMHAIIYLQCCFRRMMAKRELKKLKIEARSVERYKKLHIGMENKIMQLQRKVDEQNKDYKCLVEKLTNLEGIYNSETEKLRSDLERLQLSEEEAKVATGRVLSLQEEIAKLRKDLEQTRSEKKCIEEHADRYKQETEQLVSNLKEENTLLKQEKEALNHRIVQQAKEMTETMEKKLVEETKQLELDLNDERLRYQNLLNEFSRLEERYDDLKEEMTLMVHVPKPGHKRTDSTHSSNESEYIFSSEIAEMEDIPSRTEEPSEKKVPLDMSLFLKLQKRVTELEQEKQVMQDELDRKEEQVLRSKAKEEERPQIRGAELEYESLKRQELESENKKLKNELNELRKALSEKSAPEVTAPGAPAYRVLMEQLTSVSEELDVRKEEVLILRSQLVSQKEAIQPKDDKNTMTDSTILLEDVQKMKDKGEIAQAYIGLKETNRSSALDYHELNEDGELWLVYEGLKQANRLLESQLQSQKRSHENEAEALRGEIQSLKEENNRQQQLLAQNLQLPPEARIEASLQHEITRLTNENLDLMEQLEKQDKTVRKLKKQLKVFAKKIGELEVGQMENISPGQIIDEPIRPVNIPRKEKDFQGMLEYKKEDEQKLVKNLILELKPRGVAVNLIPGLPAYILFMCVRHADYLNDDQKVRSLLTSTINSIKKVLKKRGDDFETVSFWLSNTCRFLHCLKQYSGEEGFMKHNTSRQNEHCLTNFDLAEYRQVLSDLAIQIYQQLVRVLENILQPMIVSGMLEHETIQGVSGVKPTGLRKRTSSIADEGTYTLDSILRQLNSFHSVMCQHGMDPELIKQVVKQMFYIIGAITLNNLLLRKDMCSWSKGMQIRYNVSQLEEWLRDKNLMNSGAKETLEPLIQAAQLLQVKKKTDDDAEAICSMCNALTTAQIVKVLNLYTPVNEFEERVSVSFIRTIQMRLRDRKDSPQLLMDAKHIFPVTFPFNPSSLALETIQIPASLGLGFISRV
UniProt Q8TAG9: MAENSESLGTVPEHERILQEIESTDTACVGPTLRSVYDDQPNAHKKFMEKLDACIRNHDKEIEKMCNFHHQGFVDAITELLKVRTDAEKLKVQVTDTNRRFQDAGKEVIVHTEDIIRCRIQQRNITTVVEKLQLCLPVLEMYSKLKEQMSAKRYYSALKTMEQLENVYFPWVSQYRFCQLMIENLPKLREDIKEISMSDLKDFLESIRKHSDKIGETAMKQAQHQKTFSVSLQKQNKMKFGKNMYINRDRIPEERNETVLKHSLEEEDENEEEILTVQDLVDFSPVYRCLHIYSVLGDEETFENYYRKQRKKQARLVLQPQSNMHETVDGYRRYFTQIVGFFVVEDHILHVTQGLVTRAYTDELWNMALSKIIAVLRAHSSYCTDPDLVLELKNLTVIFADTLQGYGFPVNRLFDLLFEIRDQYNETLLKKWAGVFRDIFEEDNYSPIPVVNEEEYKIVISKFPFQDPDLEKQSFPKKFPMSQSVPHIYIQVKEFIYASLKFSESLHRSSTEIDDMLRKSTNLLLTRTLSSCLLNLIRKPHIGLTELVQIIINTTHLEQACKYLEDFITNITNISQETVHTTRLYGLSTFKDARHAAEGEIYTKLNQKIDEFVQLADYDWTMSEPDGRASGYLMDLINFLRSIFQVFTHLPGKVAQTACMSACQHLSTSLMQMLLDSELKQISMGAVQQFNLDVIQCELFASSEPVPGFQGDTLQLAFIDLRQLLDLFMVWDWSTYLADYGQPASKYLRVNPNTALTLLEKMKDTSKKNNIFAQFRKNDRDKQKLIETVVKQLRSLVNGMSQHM

These are yes or no findings as the source states them, for the method shown. Binding seen in cells or lysates may run through a third protein. Some results given as binding are weak or reduced against the parent protein; the word gives no strength.

With EXOC6A (from UniProt Q8TAG9 1-804), the binding result is “binds”.

These data come from article doi:10.1101/2025.07.25.666797.
